Results as given in paper PMC7819943, “Rice protein-binding microarrays: a tool to detect cis-acting elements near promoter regions in rice”.
Some of the results follow.

Sequences of proteins named here, by UniProt entry; tags and fusion partners are left off.
UniProt Q0JBA9, entry or part of it: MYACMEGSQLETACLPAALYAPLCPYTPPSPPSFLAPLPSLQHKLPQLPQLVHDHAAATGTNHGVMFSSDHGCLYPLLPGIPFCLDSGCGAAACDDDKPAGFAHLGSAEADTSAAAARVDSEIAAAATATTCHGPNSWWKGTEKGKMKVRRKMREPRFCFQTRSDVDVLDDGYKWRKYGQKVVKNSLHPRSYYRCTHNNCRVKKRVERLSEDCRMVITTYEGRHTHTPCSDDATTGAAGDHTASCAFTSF

Target: OsWRKY34 (Oryza sativa, UniProt Q0JBA9 1-250)
Assay: protein-binding microarray (RPBM); PBS, 2% BSA, 51.3 ng/ul salmon testes DNA, 50 uM zinc acetate, 200 nM TF, 25 C, 1 h; high values mean tight binding
Conditions: protein: recombinant; tags: N-terminal polyhistidine and DsRed monomer fusion (pET32a); label: CyDye5-dUTP incorporated in the synthesized complementary strand; 3' TTTTT single-stranded linker to array surface; dsDNA, one strand shown
Summary of the method: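 The binding signal for each feature is its fluorescence intensity in arbitrary units. An Axon 4000B scanner was used to read a custom Agilent array that had been made double-stranded with Cy5-dUTP primer extension, blocked with 2% BSA, incubated at 25 °C for 1 h with 200 nM protein in PBS, 2% BSA, salmon testes DNA and 50 µM zinc acetate, and washed. The protein was an N-terminal polyhistidine–DsRed transcription factor fusion from E. coli BL21-CodonPlus, purified on Ni–NTA.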

Question: For “TCTTGTGTGCATCCTCTCTCACCTTACAGTGCTTTTCGTTCGGAGTCACCTAGTGCAG”, which binding signal is on record?
Answer: 14500 fluorescence intensity (a.u.)

Question: How did the binding signal turn out when “GAGATTATCCGCCTAAGACTCAGTTTTTCTTCTTTTCCCTCGGAGTCACCTAGTGCAG” was run?
Answer: 9120 fluorescence intensity (a.u.)

Question: With “AGAAGAGGTCCCGTATTTACCACCACCGTTTTGACTCCTCCGGAGTCACCTAGTGCAG” as the sequence, how does the binding signal read?
Answer: 9460 fluorescence intensity (a.u.)

Question: For “CCTTCCCACTCGTCAGAAGCATCCGCCGCCTACCTGCCAACGGAGTCACCTAGTGCAG”, which binding signal is on record?
Answer: 9290 fluorescence intensity (a.u.)

Question: For “TTTGTTTTTTATTTTTTTTTGAATTCGGTCCATTTTTATTCGGAGTCACCTAGTGCAG”, which binding signal is on record?
Answer: 9400 fluorescence intensity (a.u.)

Question: Which binding signal does the source give for “CAGATATCTCTATTTACCTGCTACTCCTGAAGAGACTGGACGGAGTCACCTAGTGCAG” here?
Answer: 8460 fluorescence intensity (a.u.)

Question: With “GAATCAGAATTCGGGCAAGCAACGTTTTTTTATTTCCGATCGGAGTCACCTAGTGCAG” as the sequence, how does the binding signal read?
Answer: 8170 fluorescence intensity (a.u.)

Question: With “ATAGTGCCAAGTCAATCATTTTTAACTTTGACTATTAATACGGAGTCACCTAGTGCAG” as the sequence, how does the binding signal read?
Answer: 9950 fluorescence intensity (a.u.)

Question: How did the binding signal turn out when “AAACCCTGCCATTGTTATCGAATTTGCAAGTGCATCCATACGGAGTCACCTAGTGCAG” was run?
Answer: 8590 fluorescence intensity (a.u.)

Question: “ACTTTCCCACCACGTACGCCCGCCACTCGCGCCGTCCCCACGGAGTCACCTAGTGCAG” was tested. Which binding signal did it give?
Answer: 11500 fluorescence intensity (a.u.)

Question: “ATTGTTATGTTCCTTTGTTTTCTTATAAATATAATTTAATCGGAGTCACCTAGTGCAG” was tested. Which binding signal did it give?
Answer: 9560 fluorescence intensity (a.u.)

Question: With “TTTTTCTCACTCCATTTCATCCAATCCATCCATTCATTTCCGGAGTCACCTAGTGCAG” as the sequence, how does the binding signal read?
Answer: 10000 fluorescence intensity (a.u.)

Question: How did the binding signal turn out when “CTCCTCCGCCGCCTCCACCGGCGGCACCTCCACCTGCACCCGGAGTCACCTAGTGCAG” was run?
Answer: 8470 fluorescence intensity (a.u.)

Question: For “ACCAATCTATGAAACATCATTCATACTTCCATATCTTATTCGGAGTCACCTAGTGCAG”, which binding signal is on record?
Answer: 8610 fluorescence intensity (a.u.)

Question: How did the binding signal turn out when “TTATTTTGCTCCTCACTTTTCTTCACTAGCTCAAACACTTCGGAGTCACCTAGTGCAG” was run?
Answer: 10000 fluorescence intensity (a.u.)

Question: “ATCGTGTGTGGTCTGCGCTGTGAATGTGTGAGAGAGATCTCGGAGTCACCTAGTGCAG” was tested. Which binding signal did it give?
Answer: 8480 fluorescence intensity (a.u.)

Question: “TGTGGACAAAACCTCCGCTCCGATCTCGAGCACCACAAGTCGGAGTCACCTAGTGCAG” was tested. Which binding signal did it give?
Answer: 8030 fluorescence intensity (a.u.)

Question: For “AGCTTCCACCTCCTGATCCACCCGAACCCTAGAATCCACTCGGAGTCACCTAGTGCAG”, which binding signal is on record?
Answer: 8210 fluorescence intensity (a.u.)

Question: For “TTCCAGTAATTAAACCATTTGTTCGAGCCTCATCGATTTCCGGAGTCACCTAGTGCAG”, which binding signal is on record?
Answer: 12100 fluorescence intensity (a.u.)

Question: For “ACCCCAACTCCGTCCAGGACTCCAACGCCGCCGTCCACTCCGGAGTCACCTAGTGCAG”, which binding signal is on record?
Answer: 10100 fluorescence intensity (a.u.)

Question: Which binding signal does the source give for “CGCTTCTCTCCCTGAGCTCGGCCTCGTGTCACTGACGTCGCGGAGTCACCTAGTGCAG” here?
Answer: 8120 fluorescence intensity (a.u.)

Question: For “ACGCACCCGCGTTTCATTTCCATTTCCACCTCTTCTTCTCCGGAGTCACCTAGTGCAG”, which binding signal is on record?
Answer: 8820 fluorescence intensity (a.u.)

Question: “CGTGTGCGGGTCATGCTTCCATAAATGACTTTTTACCTACCGGAGTCACCTAGTGCAG” was tested. Which binding signal did it give?
Answer: 9060 fluorescence intensity (a.u.)

Question: For “TTGGTTGTATTAAGGCTGTGTTTAGTTTCACGCTAAAATTCGGAGTCACCTAGTGCAG”, which binding signal is on record?
Answer: 11100 fluorescence intensity (a.u.)

Question: For “AAGAGACTTCTATATCTCTATATCCTTCTTATTTGCGTCCCGGAGTCACCTAGTGCAG”, which binding signal is on record?
Answer: 8080 fluorescence intensity (a.u.)

Question: How did the binding signal turn out when “TCATGGTTTAATTATTTCTCCCTCACTTCTTCCCAGCTTTCGGAGTCACCTAGTGCAG” was run?
Answer: 9910 fluorescence intensity (a.u.)

Question: How did the binding signal turn out when “GGGACTGAGATGATACTTGAGTATTTTTTTATTGACCCTTCGGAGTCACCTAGTGCAG” was run?
Answer: 9700 fluorescence intensity (a.u.)

Question: “GTGGCTAGTGGTGTGGGGTGGTGGTGCGAAATGACGAGACCGGAGTCACCTAGTGCAG” was tested. Which binding signal did it give?
Answer: 12300 fluorescence intensity (a.u.)

Question: How did the binding signal turn out when “TCTTGCCTGCCTCATCTGCAACCGCCGTGCGCCGTGCGCGCGGAGTCACCTAGTGCAG” was run?
Answer: 8280 fluorescence intensity (a.u.)

Question: Which binding signal does the source give for “GTGCAGCCATGGATATTCGTGTCTAACGTTTGACCGTTCGCGGAGTCACCTAGTGCAG” here?
Answer: 10100 fluorescence intensity (a.u.)

Question: Which binding signal does the source give for “ATGCGCAAAAAGAAGACGACATCCTACTAACATTTTCTTTCGGAGTCACCTAGTGCAG” here?
Answer: 9050 fluorescence intensity (a.u.)

Question: Which binding signal does the source give for “GTTAGCACACAGACCATTATCTTTCTCTTGGTCATATATCCGGAGTCACCTAGTGCAG” here?
Answer: 8720 fluorescence intensity (a.u.)

Question: With “TTCCCCACCCTCACACCGCCGCCTACCACGCCGTCGTCATCGGAGTCACCTAGTGCAG” as the sequence, how does the binding signal read?
Answer: 9910 fluorescence intensity (a.u.)

Question: Which binding signal does the source give for “TTTTTGTGGTACAGTTTGTTGGACTCCGGGACAGGTGTCACGGAGTCACCTAGTGCAG” here?
Answer: 11500 fluorescence intensity (a.u.)

Question: With “TTTACGTAGAAACTTTATTTAGCATCTTGTTCAGCATATACGGAGTCACCTAGTGCAG” as the sequence, how does the binding signal read?
Answer: 8420 fluorescence intensity (a.u.)

Question: With “CTTCCTATCACCTGCCTCTCGTGTGGCCCACTTCCGGACCCGGAGTCACCTAGTGCAG” as the sequence, how does the binding signal read?
Answer: 8200 fluorescence intensity (a.u.)

Question: With “GCCGCGCCGCCGCTCGTCGTAGTTTCTCCCGCGCTGCTGCCGGAGTCACCTAGTGCAG” as the sequence, how does the binding signal read?
Answer: 8890 fluorescence intensity (a.u.)

Question: Which binding signal does the source give for “AGTTTTGACATTTCTAAATTTTGGTAGCGTTAAATGTATTCGGAGTCACCTAGTGCAG” here?
Answer: 9310 fluorescence intensity (a.u.)

Question: Which binding signal does the source give for “GCATTGCTTGGTAGCTCTTGATCTCCGCCGTCAACATTTGCGGAGTCACCTAGTGCAG” here?
Answer: 11100 fluorescence intensity (a.u.)

Question: With “ACTGGATATACCGTCTGTTCCATTCCAAAATGCTCAAATGCGGAGTCACCTAGTGCAG” as the sequence, how does the binding signal read?
Answer: 8900 fluorescence intensity (a.u.)

Question: For “ATGGGGATTGATTCAGTTAGAGGGGATGAAAAAGTCGATGCGGAGTCACCTAGTGCAG”, which binding signal is on record?
Answer: 9870 fluorescence intensity (a.u.)

Question: For “GTCCTTGTCACTGTTGTAGCTAGTCATGATTTTAGTTCCACGGAGTCACCTAGTGCAG”, which binding signal is on record?
Answer: 11000 fluorescence intensity (a.u.)

Question: With “GCTATGAAACGTATGTTTACTCATGGGTGGGGCAAGCTCTCGGAGTCACCTAGTGCAG” as the sequence, how does the binding signal read?
Answer: 10400 fluorescence intensity (a.u.)

Question: Which binding signal does the source give for “TTGTTGTTTTTCGGTACTGTTGATTGAATTAGTGTTATGTCGGAGTCACCTAGTGCAG” here?
Answer: 8120 fluorescence intensity (a.u.)

Question: Which binding signal does the source give for “TATGCATACTTTTTTATCACTGTAGTTACTAGCTAAGATCCGGAGTCACCTAGTGCAG” here?
Answer: 9000 fluorescence intensity (a.u.)

Question: For “ACATATCAAAACTTTTTTACACGTAAACTTTCAACTTTTTCGGAGTCACCTAGTGCAG”, which binding signal is on record?
Answer: 8260 fluorescence intensity (a.u.)

Question: For “GCTGTTCCTCGCCCACGTCGCGCCCTTCTACCCGGACGACCGGAGTCACCTAGTGCAG”, which binding signal is on record?
Answer: 8130 fluorescence intensity (a.u.)

Question: For “TCGATCTGTTTCGCTTTGCTTCCGTCAGCCACCGAATTTGCGGAGTCACCTAGTGCAG”, which binding signal is on record?
Answer: 10500 fluorescence intensity (a.u.)

Question: Which binding signal does the source give for “AGTACTCTTCACTGTCTCCATGGAAGTTGTAGGCCTGTTGCGGAGTCACCTAGTGCAG” here?
Answer: 8650 fluorescence intensity (a.u.)

Question: Which binding signal does the source give for “GGCCGCACGCCGACCCAGCGCCTTCCGGCCTACGGTCTTCCGGAGTCACCTAGTGCAG” here?
Answer: 8240 fluorescence intensity (a.u.)

Question: For “TCACTTGCCACATTATTTTTCATTTTAGGTTGCAGCTTATCGGAGTCACCTAGTGCAG”, which binding signal is on record?
Answer: 13200 fluorescence intensity (a.u.)

Question: Which binding signal does the source give for “CGTACCTTTGACCCGTGCCCCTAGCTCCGTCCGTTAGCTTCGGAGTCACCTAGTGCAG” here?
Answer: 8120 fluorescence intensity (a.u.)

Question: “TCTACATAGCGCTGATCGATCAGGTTGATTGCTTTATATTCGGAGTCACCTAGTGCAG” was tested. Which binding signal did it give?
Answer: 10400 fluorescence intensity (a.u.)

Question: With “GGCCGTTTTCTAGCTGTCCTATTCATGGATATGATCAATTCGGAGTCACCTAGTGCAG” as the sequence, how does the binding signal read?
Answer: 8070 fluorescence intensity (a.u.)
